Laboratory results from PMC11920102.
Results are given in words; binding and its absence hold for the method and conditions named.

Target: T1, FKBP-EndoB1^CT (Residues 269–365) (Homo sapiens) (UniProt Q9Y371)
T1 sequence: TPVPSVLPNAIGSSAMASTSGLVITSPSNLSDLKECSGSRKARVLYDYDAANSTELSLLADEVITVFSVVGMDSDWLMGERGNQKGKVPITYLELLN
Assay: rapamycin-induced rerouting to the OMM (live-cell confocal imaging); FKBP-tagged bait rerouted to the OMM-targeted FRB with rapamycin in live cells; relocalisation of the fluorescently tagged prey followed in real time

- binding: no binding
Substance: Dnm2 (Homo sapiens, Isoform 2)-mEGFP
